The results in this text go back to paper PMC4370678.

Chains of the proteins cited; added tags and fusions are not shown.
UniProt Q15691: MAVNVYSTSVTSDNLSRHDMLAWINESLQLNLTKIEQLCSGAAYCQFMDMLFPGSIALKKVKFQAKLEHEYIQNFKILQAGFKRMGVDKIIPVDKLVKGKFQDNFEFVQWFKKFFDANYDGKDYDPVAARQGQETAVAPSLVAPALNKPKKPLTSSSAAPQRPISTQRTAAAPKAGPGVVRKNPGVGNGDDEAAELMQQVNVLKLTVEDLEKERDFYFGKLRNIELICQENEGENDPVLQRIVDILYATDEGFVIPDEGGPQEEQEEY

Results are given in words; binding and its absence hold for the method and conditions named. Binding seen in cells or lysates may run through a third protein. Some entries that bind do so weakly or less than the wild type. Where a sequence is shown, tags or fusion partners need not be part of it.

For the assay, the target named is full-length human myc-tagged AIPL1 (myc-AIPL1) (human) (UniProt Q9NZN9). Description: co-IP; SK-N-SH cells co-transfected with myc-AIPL1 and EB-GFP; lysis in 1% n-dodecyl β-D-maltoside, 5 mM EDTA, pH 8.0, in PBS at 4°C; immunoprecipitation with anti-c-myc 9E10; blots with anti-GFP and anti-AIPL1.

Turning to “full-length human GFP-tagged EB1 (EB1-GFP) (from UniProt Q15691 1-268)”, the binding result is given as “binds”.

As for “full-length human GFP-tagged EB2 (EB2-GFP) (from UniProt Q15555 1-327)”, the binding entry is “binds”.

Turning to “full-length human GFP-tagged EB3 (EB3-GFP) (from UniProt Q9UPY8 1-281)”, the binding result is recorded as “binds”.
